According to publication PMC8461898:
No constants are given. Whether binding was seen depends on the method and setting. In cells and extracts the contact can be indirect.

Target: Epidermal growth factor receptor (EGFR) (human (endogenous in JHC7)) (UniProt P00533)
Assay: co-IP; CMTM3 overexpressed JHC7 cells (adenovirus, MOI 100); 1 mg lysate protein with 4 ug anti-EGFR antibody overnight at 4 C, protein G Sepharose 2 h at 4 C, three washes with lysis buffer, western blot

binding: no binding
B1: CKLF-like MARVEL transmembrane domain containing (CMTM)3 (protein, UniProt Q96MX0 1-182)
chain: MWPPDPDPDPDPEPAGGSRPGPAVPGLRALLPARAFLCSLKGRLLLAESGLSFITFICYVASSASAFLTAPLLEFLLALYFLFADAMQLNDKWQGLCWPMMDFLRCVTAALIYFAISITAIAKYSDGASKAAGVFGFFATIVFATDFYLIFNDVAKFLKQGDSADETTAHKTEEENSDSDSD
